Assay results reported in US20210008083A1, “USE OF A BISPHOSPHONATE SALT IN A MEDICAMENT FOR A NATURALLY OCCURRING DISEASE/DISORDER IN A MAMMAL” (Ostafit B.V., priority 2016, published 2021).

Assays:
[1] = test system: osteoarthritis in the SI joint; settings: about 100 horses, 4-22 years, 0.2 mg/kg intravenous
Procedure: The following experiments were performed during November 2015-May 2016. In various veterinarian locations in the Netherlands the animals were treated or occasionally the animals were treated on a farm in a stable.

experimental OA = settings: cited from earlier work
[2] = cited from earlier work

In the case of `NCCCC(O)(P(=O)(O)O)P(=O)(O)O.O.O.O` [Alendronate, [4-amino-1-hydroxy-1-(hydroxy-oxido-phosphoryl)-butyl]phosphonic acid trihydrate], the “horses free of complaints for the SI joint” value [1] is listed as “Most horses were free of complaints for the SI joint within a relative short period of time, some even within a week”, the “effect on bone turnover and subchondral bone” value (experimental OA) is listed as “prevented increased bone turnover and preserved the structural integrity of subchondral bone” and the “esophageal irritation after oral dosage” value [2] is listed as “can cause irritation and inflammation of the esophagus”.
